Reference: PMC3397928
Results are given in words; binding and its absence hold for the method and conditions named. Binding seen in cells or lysates may run through a third protein. Some entries that bind do so weakly or less than the wild type.

Molecular target: T1, adipose triglyceride lipase (ATGL) (rat (endogenous in primary epididymal adipocytes)) (UniProt P0C548)
T1 sequence: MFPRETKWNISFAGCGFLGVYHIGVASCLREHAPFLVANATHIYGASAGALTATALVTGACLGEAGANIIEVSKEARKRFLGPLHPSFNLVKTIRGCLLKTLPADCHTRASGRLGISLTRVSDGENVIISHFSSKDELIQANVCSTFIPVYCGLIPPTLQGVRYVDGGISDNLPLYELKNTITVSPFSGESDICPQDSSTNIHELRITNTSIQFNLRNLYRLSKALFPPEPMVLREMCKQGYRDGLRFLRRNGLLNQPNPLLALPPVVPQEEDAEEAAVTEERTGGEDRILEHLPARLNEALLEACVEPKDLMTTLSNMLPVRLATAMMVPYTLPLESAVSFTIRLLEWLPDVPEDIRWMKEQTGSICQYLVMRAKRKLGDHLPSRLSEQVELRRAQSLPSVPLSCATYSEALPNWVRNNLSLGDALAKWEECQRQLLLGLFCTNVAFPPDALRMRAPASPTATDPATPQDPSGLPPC
Assay: co-IP; pellet fraction lysate of primary adipocytes from sedentary control (CG) and habitual exercise (EG) rats, pre-cleared with rabbit normal IgG and protein A/G agarose; primary antibody to HSL or ATGL with protein A/G agarose beads at 4°C overnight; beads washed 4 times in ice-cold PBS; immunoblotting

binding: binds
B1: comparative gene identification-58 (CGI-58) (protein, UniProt Q6QA69 1-351)
chain: MKAMAAEEEVDSADAGGGSGWLTGWLPTWCPTSTSHLKEAEEKMLKCVPCTYKKEPVRISNGNSIWTLMFSHNMSSKTPLVLLHGFGGGLGLWALNFEDLSTDRPVYAFDLLGFGRSSRPRFDSDAEEVENQFVESIEEWRCALRLDKMILLGHNLGGFLAAAYSLKYPSRVSHLILVEPWGFPERPDLADQERPIPVWIRALGAALTPFNPLAGLRIAGPFGLSLVQRLRPDFKRKYSSMFEDDTVTEYIYHCNVQTPSGETAFKNMTIPYGWAKRPMLQRIGGLHPDIPVSVIFGARSCIDGNSGTSIQSLRPKSYVKTIAILGAGHYVYADQPEEFNQKVKEICHTVD
